System: T1, trypsin from crevalle jack (Caranx hippos) pyloric caeca
T1 construct: gene trypsin-like enzyme; native, purified from pyloric caeca (heat, ammonium sulfate, Sephadex G-75); mature N-terminus IVGGFECTPHVFAYQ
Assay: residual activity, BApNA hydrolysis at […] nm
Assay type: biochemical
Conditions: 1000 µM, 30 min preincubation with 1 mM inhibitor, 4 mM BApNA

SMILES | Residual activity ± SD (%) | Residual activity ± SD (%) (covalent)
N=C(N)c1ccccc1 [benzamidine] | 1.43 ± 0.2% | –
Cc1ccc(S(=O)(=O)N[C@@H](CCCCN)C(=O)CCl)cc1 [TLCK] | – | 0 ± 0%

From paper PMC3817308, “Metal-sensitive and thermostable trypsin from the crevalle jack (Caranx hippos) pyloric caeca: purification and characterization” (Chemistry Central Journal, 2013)
